Assay results: article PMC8172852
These are yes or no findings as the source states them, for the method shown. Binding seen in cells or lysates may run through a third protein. Some entries that bind do so weakly or less than the wild type. Where a sequence is shown, tags or fusion partners need not be part of it.

Protein sequences, listed by entry. Tags and fused reporters are not part of them.
UniProt P00722: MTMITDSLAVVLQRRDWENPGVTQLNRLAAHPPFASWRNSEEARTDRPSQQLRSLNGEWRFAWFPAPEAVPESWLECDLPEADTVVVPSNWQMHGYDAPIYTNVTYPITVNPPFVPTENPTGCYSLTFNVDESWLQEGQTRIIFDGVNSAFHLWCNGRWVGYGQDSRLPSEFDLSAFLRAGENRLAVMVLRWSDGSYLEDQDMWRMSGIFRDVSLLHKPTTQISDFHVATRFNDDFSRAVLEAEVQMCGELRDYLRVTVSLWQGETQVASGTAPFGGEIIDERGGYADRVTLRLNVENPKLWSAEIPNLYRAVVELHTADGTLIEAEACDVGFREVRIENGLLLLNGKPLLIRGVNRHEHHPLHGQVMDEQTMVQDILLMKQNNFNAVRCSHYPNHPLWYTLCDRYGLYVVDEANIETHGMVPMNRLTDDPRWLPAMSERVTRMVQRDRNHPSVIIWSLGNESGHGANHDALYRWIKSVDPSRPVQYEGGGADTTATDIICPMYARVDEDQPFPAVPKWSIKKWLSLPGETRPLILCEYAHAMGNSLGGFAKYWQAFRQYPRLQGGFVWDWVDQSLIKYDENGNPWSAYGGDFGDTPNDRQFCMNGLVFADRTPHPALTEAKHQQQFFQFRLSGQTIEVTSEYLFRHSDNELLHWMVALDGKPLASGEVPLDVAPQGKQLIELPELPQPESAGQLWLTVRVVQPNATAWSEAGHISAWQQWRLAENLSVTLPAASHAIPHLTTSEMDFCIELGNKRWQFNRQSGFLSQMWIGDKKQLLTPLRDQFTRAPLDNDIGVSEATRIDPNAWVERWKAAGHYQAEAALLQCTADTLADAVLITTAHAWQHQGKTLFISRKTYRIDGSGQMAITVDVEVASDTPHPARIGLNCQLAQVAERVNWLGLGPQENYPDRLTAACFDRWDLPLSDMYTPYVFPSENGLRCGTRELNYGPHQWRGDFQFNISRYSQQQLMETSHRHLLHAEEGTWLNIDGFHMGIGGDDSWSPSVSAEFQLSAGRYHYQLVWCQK

T1: HA-tagged Nprl2 (Drosophila) (UniProt Q9VXA0)
T1 sequence: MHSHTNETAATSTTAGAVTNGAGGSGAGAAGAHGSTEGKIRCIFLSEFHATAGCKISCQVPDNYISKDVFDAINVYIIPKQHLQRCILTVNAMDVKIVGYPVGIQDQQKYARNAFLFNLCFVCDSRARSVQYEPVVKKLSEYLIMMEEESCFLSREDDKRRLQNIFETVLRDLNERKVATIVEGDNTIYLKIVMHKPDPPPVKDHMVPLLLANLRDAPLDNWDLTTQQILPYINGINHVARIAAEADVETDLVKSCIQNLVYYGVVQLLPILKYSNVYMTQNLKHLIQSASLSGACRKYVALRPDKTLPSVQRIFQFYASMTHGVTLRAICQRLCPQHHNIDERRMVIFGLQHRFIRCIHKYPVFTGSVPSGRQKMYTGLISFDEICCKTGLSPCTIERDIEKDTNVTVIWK

T2: HA-tagged Nprl3 (Drosophila) (UniProt Q9VUB4)
T2 sequence: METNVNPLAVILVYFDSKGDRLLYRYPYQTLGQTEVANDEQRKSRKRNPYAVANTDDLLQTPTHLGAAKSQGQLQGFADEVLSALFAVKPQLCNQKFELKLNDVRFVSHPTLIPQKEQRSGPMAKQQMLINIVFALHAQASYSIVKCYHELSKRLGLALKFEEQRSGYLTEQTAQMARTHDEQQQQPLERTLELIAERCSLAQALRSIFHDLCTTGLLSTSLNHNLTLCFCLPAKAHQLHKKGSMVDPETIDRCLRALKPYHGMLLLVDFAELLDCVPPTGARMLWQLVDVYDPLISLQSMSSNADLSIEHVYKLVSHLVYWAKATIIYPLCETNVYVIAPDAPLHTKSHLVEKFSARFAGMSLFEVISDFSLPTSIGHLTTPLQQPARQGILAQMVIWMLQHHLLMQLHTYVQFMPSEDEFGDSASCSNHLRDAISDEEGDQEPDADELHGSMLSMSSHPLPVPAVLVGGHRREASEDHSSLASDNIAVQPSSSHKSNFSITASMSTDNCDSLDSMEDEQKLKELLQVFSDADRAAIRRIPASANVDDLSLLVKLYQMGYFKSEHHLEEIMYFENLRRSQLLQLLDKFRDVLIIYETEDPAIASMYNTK


Assays:
[1] = molecular target: T1, HA-tagged Nprl2 (Drosophila); assay: co-IP; S2 cells co-transfected, lysed in RIPA buffer with protease and phosphatase inhibitors; HA antibody-coated magnet beads 6 h at room temperature, washed six times; western blot; cells in Schneider's medium plus 10% FBS or amino-acid-free medium for 2 h
[2] = molecular target: T2, HA-tagged Nprl3 (Drosophila); assay: as above

binding [1]	binding [2]	Molecule
no binding	no binding	V5-tagged LacZ (from UniProt P00722 1-1024)
binds	binds	V5-tagged FKBP39 (protein, UniProt P54397 1-357) MSMFWGLNMKPERKYSQTIIKSFHISGVALDKGQEAKLYLAAEKQEYIVATVTKAIPQVALDLNFSKGDRIMFYTAGDASVSLLGYLHDIDSEDDEDDDQMTIENLLNSKAIKNSKKSEDDEDENESGEEDEEDTDDDSQIIEEYESFLENGEEEDDDDVDEDNEESGEEDEQDSDDSEAEEEQPKAKVAKLSPGASAKKSGKEQNGVAKKEEAKQQQKKKEKPEAKKEQPKAKEPAKQQPASKDPRTITGGVKIVDQVVGKGEEAKQGKRVSVYYIGRLQSNNKTFDSLLKGKPFKFALGGGEVIKGWDVGVAGMKVGGKRVITCPPHMAYGARGAPPKIGPNSTLVFEVELKAVH
